Assay results published in the supplement of paper PMC12823440, “Inhibitors supercharge kinase turnover through native proteolytic circuits” (Nature, 2025).
Counter-ions that a name gives are not always drawn. This is one part of the list. Hit calls seldom repeat between salt and free forms of one compound.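 In K562 cells expressing nanoluciferase-fused kinases, luminescence was recorded at 4 h intervals between 2 and 18 h, normalized as percent of control with DMSO at 100% and a positive control at 0%. A significant (2 sigma) signal drop marks a time point as decreased. The authors' rule for a hit is not shown and takes in more than the number of time points.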

Sequences of proteins named here, by UniProt entry; tags and fusion partners are left off. A change or cut given only in a name is not applied to a line headed by its entry.
UniProt P28482, whole entry: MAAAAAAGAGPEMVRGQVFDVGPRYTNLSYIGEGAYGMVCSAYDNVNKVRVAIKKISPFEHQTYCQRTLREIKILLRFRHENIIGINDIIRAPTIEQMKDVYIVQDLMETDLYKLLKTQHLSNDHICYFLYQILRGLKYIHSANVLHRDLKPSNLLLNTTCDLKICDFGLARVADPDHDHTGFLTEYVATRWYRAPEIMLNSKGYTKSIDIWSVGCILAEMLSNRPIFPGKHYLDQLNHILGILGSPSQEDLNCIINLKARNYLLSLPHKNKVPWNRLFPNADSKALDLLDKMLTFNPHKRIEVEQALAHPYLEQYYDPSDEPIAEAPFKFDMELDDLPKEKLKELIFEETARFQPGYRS
UniProt P31152, whole entry: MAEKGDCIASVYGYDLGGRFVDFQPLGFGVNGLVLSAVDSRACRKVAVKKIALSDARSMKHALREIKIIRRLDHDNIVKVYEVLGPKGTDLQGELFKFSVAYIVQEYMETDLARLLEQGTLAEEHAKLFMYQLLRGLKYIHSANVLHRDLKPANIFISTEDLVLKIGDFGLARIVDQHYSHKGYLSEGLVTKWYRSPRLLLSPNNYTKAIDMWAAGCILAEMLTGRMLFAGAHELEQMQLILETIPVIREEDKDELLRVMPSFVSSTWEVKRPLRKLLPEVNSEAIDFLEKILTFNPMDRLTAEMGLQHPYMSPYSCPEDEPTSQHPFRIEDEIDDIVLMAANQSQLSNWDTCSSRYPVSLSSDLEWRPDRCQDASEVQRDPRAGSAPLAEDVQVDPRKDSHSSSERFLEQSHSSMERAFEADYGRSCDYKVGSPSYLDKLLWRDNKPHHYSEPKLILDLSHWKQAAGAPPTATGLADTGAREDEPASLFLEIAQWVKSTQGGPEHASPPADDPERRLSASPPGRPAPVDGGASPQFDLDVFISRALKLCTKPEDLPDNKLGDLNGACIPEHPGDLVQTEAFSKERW
UniProt P49137, whole entry, looked up: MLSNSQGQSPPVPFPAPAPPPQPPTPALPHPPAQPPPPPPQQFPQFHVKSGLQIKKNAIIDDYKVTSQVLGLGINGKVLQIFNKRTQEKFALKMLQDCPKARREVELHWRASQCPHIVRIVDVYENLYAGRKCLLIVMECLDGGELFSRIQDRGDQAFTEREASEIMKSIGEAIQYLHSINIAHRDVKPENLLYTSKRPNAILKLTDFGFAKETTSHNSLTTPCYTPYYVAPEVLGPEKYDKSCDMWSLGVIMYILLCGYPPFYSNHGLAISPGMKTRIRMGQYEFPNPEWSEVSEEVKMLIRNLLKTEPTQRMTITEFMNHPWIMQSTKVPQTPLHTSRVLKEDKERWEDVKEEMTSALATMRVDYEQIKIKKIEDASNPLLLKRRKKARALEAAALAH
UniProt Q9BUB5: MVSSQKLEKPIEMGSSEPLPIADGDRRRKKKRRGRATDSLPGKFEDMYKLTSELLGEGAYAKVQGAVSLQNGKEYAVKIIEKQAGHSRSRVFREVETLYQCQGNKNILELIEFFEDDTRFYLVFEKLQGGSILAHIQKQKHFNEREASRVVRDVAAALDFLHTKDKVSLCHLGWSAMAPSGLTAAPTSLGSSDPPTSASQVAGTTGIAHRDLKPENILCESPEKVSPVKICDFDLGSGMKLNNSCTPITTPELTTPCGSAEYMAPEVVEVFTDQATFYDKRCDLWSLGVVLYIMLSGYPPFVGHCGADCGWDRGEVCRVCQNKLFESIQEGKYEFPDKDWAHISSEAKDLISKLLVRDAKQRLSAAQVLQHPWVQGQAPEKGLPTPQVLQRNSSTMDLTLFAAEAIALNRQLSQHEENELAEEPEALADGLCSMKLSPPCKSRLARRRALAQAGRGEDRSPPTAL
UniProt Q16620, whole entry, looked up: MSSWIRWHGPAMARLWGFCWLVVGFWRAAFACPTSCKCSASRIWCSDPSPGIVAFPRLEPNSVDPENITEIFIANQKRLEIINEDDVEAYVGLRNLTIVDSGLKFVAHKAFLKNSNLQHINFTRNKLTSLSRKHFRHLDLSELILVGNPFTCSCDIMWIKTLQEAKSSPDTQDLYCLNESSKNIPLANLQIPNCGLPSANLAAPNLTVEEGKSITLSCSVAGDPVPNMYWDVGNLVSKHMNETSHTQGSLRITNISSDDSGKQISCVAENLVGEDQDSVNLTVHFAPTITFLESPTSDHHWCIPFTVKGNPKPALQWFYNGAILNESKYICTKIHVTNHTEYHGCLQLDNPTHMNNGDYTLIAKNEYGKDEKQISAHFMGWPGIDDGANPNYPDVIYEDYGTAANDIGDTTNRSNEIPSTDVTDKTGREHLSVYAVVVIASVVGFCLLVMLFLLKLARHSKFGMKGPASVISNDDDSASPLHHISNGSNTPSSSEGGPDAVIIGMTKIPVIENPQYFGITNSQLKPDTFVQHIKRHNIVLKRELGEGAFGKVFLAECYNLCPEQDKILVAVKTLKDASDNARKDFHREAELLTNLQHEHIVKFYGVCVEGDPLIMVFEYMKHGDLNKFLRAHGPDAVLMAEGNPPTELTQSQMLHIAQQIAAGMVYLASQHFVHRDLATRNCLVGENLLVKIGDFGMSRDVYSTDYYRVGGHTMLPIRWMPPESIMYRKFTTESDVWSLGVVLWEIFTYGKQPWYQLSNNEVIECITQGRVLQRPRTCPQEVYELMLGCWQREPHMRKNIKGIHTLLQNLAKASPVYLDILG
UniProt Q16288, whole entry, looked up: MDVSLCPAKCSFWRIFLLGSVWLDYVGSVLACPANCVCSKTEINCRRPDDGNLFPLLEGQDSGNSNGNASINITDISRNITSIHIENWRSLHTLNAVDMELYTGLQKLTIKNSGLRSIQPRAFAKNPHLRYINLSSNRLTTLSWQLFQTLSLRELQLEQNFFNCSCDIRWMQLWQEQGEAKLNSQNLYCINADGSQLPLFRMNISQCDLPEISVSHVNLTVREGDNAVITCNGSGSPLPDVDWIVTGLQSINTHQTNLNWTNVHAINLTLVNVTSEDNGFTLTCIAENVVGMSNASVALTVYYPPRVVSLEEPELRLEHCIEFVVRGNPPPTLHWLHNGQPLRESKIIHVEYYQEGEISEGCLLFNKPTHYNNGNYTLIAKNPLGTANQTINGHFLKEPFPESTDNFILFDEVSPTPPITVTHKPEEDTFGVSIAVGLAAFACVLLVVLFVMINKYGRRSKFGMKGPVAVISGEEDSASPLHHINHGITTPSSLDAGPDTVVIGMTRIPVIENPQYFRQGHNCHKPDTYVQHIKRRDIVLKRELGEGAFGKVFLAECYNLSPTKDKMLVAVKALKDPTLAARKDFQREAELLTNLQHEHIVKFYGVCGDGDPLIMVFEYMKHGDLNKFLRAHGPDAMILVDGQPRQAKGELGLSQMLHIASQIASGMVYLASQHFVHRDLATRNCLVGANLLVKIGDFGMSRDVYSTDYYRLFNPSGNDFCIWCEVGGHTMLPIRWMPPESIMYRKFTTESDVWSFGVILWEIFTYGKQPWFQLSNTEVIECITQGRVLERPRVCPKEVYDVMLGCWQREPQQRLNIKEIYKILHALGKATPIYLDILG
UniProt O96013: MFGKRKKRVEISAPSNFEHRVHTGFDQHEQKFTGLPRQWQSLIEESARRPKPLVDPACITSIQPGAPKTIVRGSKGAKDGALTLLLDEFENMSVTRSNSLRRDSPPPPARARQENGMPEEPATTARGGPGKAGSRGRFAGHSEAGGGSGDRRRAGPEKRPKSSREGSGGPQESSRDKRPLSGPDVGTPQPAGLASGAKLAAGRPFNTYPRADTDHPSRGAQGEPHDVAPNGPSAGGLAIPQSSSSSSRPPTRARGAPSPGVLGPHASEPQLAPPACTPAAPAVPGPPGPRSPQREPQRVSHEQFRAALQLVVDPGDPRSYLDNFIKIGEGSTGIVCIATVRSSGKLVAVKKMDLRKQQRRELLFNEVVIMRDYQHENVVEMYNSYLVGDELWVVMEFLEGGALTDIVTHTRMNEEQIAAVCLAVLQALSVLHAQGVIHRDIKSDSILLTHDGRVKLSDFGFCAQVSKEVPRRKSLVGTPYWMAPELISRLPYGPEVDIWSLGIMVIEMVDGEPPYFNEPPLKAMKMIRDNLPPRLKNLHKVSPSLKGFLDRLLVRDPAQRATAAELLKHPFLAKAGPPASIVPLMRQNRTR
UniProt Q96KB5: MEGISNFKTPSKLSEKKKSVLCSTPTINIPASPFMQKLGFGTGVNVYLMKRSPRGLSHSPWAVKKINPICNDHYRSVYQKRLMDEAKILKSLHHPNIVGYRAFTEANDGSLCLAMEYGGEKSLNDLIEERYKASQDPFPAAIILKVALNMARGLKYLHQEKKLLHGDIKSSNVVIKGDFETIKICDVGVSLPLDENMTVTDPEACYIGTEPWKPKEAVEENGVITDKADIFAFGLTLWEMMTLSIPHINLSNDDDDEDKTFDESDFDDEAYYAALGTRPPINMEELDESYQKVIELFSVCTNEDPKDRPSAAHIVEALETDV
UniProt P09619, whole entry: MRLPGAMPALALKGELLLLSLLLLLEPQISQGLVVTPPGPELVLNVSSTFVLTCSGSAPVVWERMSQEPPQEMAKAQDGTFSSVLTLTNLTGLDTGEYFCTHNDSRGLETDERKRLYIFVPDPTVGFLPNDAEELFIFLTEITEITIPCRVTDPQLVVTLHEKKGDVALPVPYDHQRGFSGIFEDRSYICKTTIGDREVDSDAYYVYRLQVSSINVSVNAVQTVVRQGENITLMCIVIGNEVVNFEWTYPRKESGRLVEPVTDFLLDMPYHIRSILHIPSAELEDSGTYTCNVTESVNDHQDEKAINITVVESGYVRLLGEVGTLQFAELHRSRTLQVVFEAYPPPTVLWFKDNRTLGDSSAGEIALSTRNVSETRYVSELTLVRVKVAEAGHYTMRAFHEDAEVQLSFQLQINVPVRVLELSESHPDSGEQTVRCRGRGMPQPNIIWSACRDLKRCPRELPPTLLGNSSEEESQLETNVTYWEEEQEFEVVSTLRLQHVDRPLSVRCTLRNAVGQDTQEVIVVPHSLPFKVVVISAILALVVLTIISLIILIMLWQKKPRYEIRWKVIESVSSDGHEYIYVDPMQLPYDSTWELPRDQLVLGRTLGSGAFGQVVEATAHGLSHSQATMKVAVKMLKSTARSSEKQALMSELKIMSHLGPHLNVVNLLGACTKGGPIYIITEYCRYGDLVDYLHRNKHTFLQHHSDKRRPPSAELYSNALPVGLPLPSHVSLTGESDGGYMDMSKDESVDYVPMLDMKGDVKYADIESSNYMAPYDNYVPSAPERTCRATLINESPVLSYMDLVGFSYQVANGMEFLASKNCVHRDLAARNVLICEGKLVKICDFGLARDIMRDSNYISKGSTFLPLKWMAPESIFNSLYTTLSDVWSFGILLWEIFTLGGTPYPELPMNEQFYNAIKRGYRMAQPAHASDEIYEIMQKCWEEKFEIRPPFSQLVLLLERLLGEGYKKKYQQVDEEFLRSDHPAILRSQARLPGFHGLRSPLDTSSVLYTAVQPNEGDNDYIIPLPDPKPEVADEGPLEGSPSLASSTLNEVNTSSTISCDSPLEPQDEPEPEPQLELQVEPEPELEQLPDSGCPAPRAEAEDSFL
UniProt Q15118, whole entry, looked up: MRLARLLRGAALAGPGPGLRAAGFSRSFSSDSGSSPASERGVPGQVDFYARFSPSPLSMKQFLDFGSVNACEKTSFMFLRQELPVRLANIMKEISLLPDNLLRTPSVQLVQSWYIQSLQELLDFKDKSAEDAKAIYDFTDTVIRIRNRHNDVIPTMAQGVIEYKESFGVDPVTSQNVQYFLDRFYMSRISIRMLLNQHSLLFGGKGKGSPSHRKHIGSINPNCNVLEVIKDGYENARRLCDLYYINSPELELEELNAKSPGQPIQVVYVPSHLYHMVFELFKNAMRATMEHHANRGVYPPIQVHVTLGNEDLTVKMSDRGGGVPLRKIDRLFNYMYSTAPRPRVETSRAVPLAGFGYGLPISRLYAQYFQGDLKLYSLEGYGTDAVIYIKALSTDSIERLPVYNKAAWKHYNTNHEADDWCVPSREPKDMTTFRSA

Tests used:
Assay in all cases: kinase-Nluc reporter destabilization hit call (1 = scored as downregulated) (binary); higher = compound decreases kinase abundance
Conditions in all cases: K562, 2-18 h
[1] = molecular target: MAPK1 (UniProt P28482)
[2] = molecular target: MAPK4 (UniProt P31152)
[3] = molecular target: MAPKAPK2 (UniProt P49137)
[4] = molecular target: MKNK1 (UniProt Q9BUB5)
[5] = molecular target: NTRK2 (UniProt Q16620)
[6] = molecular target: NTRK3 (UniProt Q16288)
[7] = molecular target: PAK4 (UniProt O96013)
[8] = molecular target: PBK (UniProt Q96KB5)
[9] = molecular target: PDGFRB (UniProt P09619)
[10] = molecular target: PDK1 (UniProt Q15118)

Measured: kinase-Nluc reporter destabilization hit call

O=C(NCCCNc1nc(Nc2cccc(CN3CCOCC3)c2)ncc1C1CC1)C1CCC1
inactive: [1]; 10 µM 0 | [2]; 10 µM 0 | [3]; 10 µM 0 | [4]; 10 µM 0 | [5]; 10 µM 0 | [6]; 10 µM 0 | [7]; 10 µM 0 | [8]; 10 µM 0 | [9]; 10 µM 0 | [10]; 10 µM 0

O=c1ncn2nc(Sc3ccc(F)cc3F)ccc2c1-c1c(Cl)cccc1Cl [Neflamapimod]
inactive: [1]; 10 µM 0 | [2]; 10 µM 0 | [3]; 10 µM 0 | [4]; 10 µM 0 | [5]; 10 µM 0 | [6]; 10 µM 0 | [7]; 10 µM 0 | [8]; 10 µM 0 | [9]; 10 µM 0 | [10]; 10 µM 0

C=CC(=O)N1CCC[C@@H](n2nc(-c3ccc(Oc4ccccc4)cc3)c3c(N)ncnc32)C1 [Ibrutinib]
inactive: [1]; 2.5 µM 0 | [2]; 2.5 µM 0 | [3]; 2.5 µM 0 | [4]; 2.5 µM 0 | [5]; 2.5 µM 0 | [6]; 2.5 µM 0 | [7]; 2.5 µM 0 | [8]; 2.5 µM 0 | [9]; 2.5 µM 0 | [10]; 2.5 µM 0

Cc1ccc(Nc2nccc(N(C)c3ccc4c(C)n(C)nc4c3)n2)cc1S(N)(=O)=O [Pazopanib]
inactive: [1]; 10 µM 0 | [2]; 10 µM 0 | [3]; 10 µM 0 | [4]; 10 µM 0 | [5]; 10 µM 0 | [6]; 10 µM 0 | [7]; 10 µM 0 | [8]; 10 µM 0 | [9]; 10 µM 0 | [10]; 10 µM 0

C[C@@H]1O[C@@H](Oc2c(-c3ccc(O)c(O)c3)oc3cc(O)cc(O)c3c2=O)[C@H](O)[C@H](O)[C@H]1O [Quercitrin]
inactive: [1]; 10 µM 0 | [2]; 10 µM 0 | [3]; 10 µM 0 | [4]; 10 µM 0 | [5]; 10 µM 0 | [6]; 10 µM 0 | [7]; 10 µM 0 | [8]; 10 µM 0 | [9]; 10 µM 0 | [10]; 10 µM 0

COc1ccc(-c2cc3nccn3c(Nc3ncccc3C(N)=O)n2)cc1OC [BAY 61-3606 (dihydrochloride)]
inactive: [1]; 2.5 µM 0 | [2]; 2.5 µM 0 | [3]; 2.5 µM 0 | [4]; 2.5 µM 0 | [5]; 2.5 µM 0 | [6]; 2.5 µM 0 | [7]; 2.5 µM 0 | [8]; 2.5 µM 0 | [9]; 2.5 µM 0 | [10]; 2.5 µM 0

NCCNc1ncc(C(N)=O)c(Nc2cccc(C(F)(F)F)c2)n1 [Syk Inhibitor II]
inactive: [1]; 10 µM 0 | [2]; 10 µM 0 | [3]; 10 µM 0 | [4]; 10 µM 0 | [5]; 10 µM 0 | [6]; 10 µM 0 | [7]; 10 µM 0 | [8]; 10 µM 0 | [9]; 10 µM 0 | [10]; 10 µM 0

CCCCCCCCCCCCc1ccc(S(=O)(=O)Nc2nncs2)cc1
active: [5]; 10 µM 1
inactive: [1]; 10 µM 0 | [2]; 10 µM 0 | [3]; 10 µM 0 | [4]; 10 µM 0 | [6]; 10 µM 0 | [7]; 10 µM 0 | [8]; 10 µM 0 | [9]; 10 µM 0 | [10]; 10 µM 0

CC1(C)CNc2cc(NC(=O)c3cccnc3NCc3ccncc3)ccc21 [Motesanib (Diphosphate)]
inactive: [1]; 2.5 µM 0 | [2]; 2.5 µM 0 | [3]; 2.5 µM 0 | [4]; 2.5 µM 0 | [5]; 2.5 µM 0 | [6]; 2.5 µM 0 | [7]; 2.5 µM 0 | [8]; 2.5 µM 0 | [9]; 2.5 µM 0 | [10]; 2.5 µM 0

C[C@H]1CN(C2COC2)CCN1c1ccc(Nc2cc(-c3ccnc(N4CCn5c(cc6c5CC(C)(C)C6)C4=O)c3CO)cn(C)c2=O)nc1 [Fenebrutinib]
inactive: [1]; 10 µM 0 | [2]; 10 µM 0 | [3]; 10 µM 0 | [4]; 10 µM 0 | [5]; 10 µM 0 | [6]; 10 µM 0 | [7]; 10 µM 0 | [8]; 10 µM 0 | [9]; 10 µM 0 | [10]; 10 µM 0

CC(C)N(CCC(=O)c1ccc2ccccc2c1)Cc1ccccc1
inactive: [1]; 10 µM 0 | [2]; 10 µM 0 | [3]; 10 µM 0 | [4]; 10 µM 0 | [5]; 10 µM 0 | [6]; 10 µM 0 | [7]; 10 µM 0 | [8]; 10 µM 0 | [9]; 10 µM 0 | [10]; 10 µM 0

CC1(C)CNc2cc(NC(=O)c3cccnc3NCc3ccncc3)ccc21 [Motesanib]
inactive: [1]; 2.5 µM 0 | [2]; 2.5 µM 0 | [3]; 2.5 µM 0 | [4]; 2.5 µM 0 | [5]; 2.5 µM 0 | [6]; 2.5 µM 0 | [7]; 2.5 µM 0 | [8]; 2.5 µM 0 | [9]; 2.5 µM 0 | [10]; 2.5 µM 0

COc1cc(N2CCC(N3CCN(C)CC3)CC2)ccc1Nc1ncc(Cl)c(Nc2ccccc2S(=O)(=O)C(C)C)n1
inactive: [1]; 2.5 µM 0 | [2]; 2.5 µM 0 | [3]; 2.5 µM 0 | [4]; 2.5 µM 0 | [5]; 2.5 µM 0 | [6]; 2.5 µM 0 | [7]; 2.5 µM 0 | [8]; 2.5 µM 0 | [9]; 2.5 µM 0 | [10]; 2.5 µM 0

C[C@H]1Oc2cc(cnc2N)-c2c(nn(C)c2C#N)CN(C)C(=O)c2ccc(F)cc21 [Lorlatinib]
inactive: [1]; 10 µM 0 | [2]; 10 µM 0 | [3]; 10 µM 0 | [4]; 10 µM 0 | [5]; 10 µM 0 | [6]; 10 µM 0 | [7]; 10 µM 0 | [8]; 10 µM 0 | [9]; 10 µM 0 | [10]; 10 µM 0

Cc1ccc2c(=O)c3cccc(CC(=O)O)c3oc2c1C [Vadimezan]
inactive: [1]; 10 µM 0 | [2]; 10 µM 0 | [3]; 10 µM 0 | [4]; 10 µM 0 | [5]; 10 µM 0 | [6]; 10 µM 0 | [7]; 10 µM 0 | [8]; 10 µM 0 | [9]; 10 µM 0 | [10]; 10 µM 0

COc1cc(N2CCN(C)CC2)ccc1Nc1nccc(-c2cn(C)c3cnccc23)n1
inactive: [1]; 10 µM 0 | [2]; 10 µM 0 | [3]; 10 µM 0 | [4]; 10 µM 0 | [5]; 10 µM 0 | [6]; 10 µM 0 | [7]; 10 µM 0 | [8]; 10 µM 0 | [9]; 10 µM 0 | [10]; 10 µM 0

NC1(C(=O)N[C@@H](CCO)c2ccc(Cl)cc2)CCN(c2nc[nH]c3nccc2-3)CC1 [Capivasertib]
inactive: [1]; 10 µM 0 | [2]; 10 µM 0 | [3]; 10 µM 0 | [4]; 10 µM 0 | [5]; 10 µM 0 | [6]; 10 µM 0 | [7]; 10 µM 0 | [8]; 10 µM 0 | [9]; 10 µM 0 | [10]; 10 µM 0

O=C1Cc2c([nH]c3ccc(Br)cc23)-c2ccccc2N1 [Kenpaullone]
inactive: [1]; 10 µM 0 | [2]; 10 µM 0 | [3]; 10 µM 0 | [4]; 10 µM 0 | [5]; 10 µM 0 | [6]; 10 µM 0 | [7]; 10 µM 0 | [8]; 10 µM 0 | [9]; 10 µM 0 | [10]; 10 µM 0

Nc1ncccc1-c1nc2ccc(-c3ccccc3)nc2n1-c1ccc(C2(N)CCC2)cc1 [Miransertib]
inactive: [1]; 10 µM 0 | [2]; 10 µM 0 | [3]; 10 µM 0 | [4]; 10 µM 0 | [5]; 10 µM 0 | [6]; 10 µM 0 | [7]; 10 µM 0 | [8]; 10 µM 0 | [9]; 10 µM 0 | [10]; 10 µM 0

COc1ccc(-c2c[nH]c3nccc(-c4ccsc4)c23)c(OC)c1
inactive: [1]; 10 µM 0 | [2]; 10 µM 0 | [3]; 10 µM 0 | [4]; 10 µM 0 | [5]; 10 µM 0 | [6]; 10 µM 0 | [7]; 10 µM 0 | [8]; 10 µM 0 | [9]; 10 µM 0 | [10]; 10 µM 0

C[C@@H]1CN(C(=O)Nc2ccc(-c3nc(N4CCOCC4)c4cnn(CCCCCCC(=O)NO)c4n3)cc2)CCO1 [HDACs/mTOR Inhibitor 1]
inactive: [1]; 10 µM 0 | [2]; 10 µM 0 | [3]; 10 µM 0 | [4]; 10 µM 0 | [5]; 10 µM 0 | [6]; 10 µM 0 | [7]; 10 µM 0 | [8]; 10 µM 0 | [9]; 10 µM 0 | [10]; 10 µM 0

Cc1ccc(O)cc1Nc1ccnc(Nc2cccc(C(N)=O)c2)n1 [Lck inhibitor 2]
inactive: [1]; 10 µM 0 | [2]; 10 µM 0 | [3]; 10 µM 0 | [4]; 10 µM 0 | [5]; 10 µM 0 | [6]; 10 µM 0 | [7]; 10 µM 0 | [8]; 10 µM 0 | [9]; 10 µM 0 | [10]; 10 µM 0

Fc1ccc(-c2nc(-c3ccc4ccccc4c3F)[nH]c2-c2ccncc2)cc1
inactive: [1]; 10 µM 0 | [2]; 10 µM 0 | [3]; 10 µM 0 | [4]; 10 µM 0 | [5]; 10 µM 0 | [6]; 10 µM 0 | [7]; 10 µM 0 | [8]; 10 µM 0 | [9]; 10 µM 0 | [10]; 10 µM 0

Cc1nc(Nc2ncc(C(=O)Nc3c(C)cccc3Cl)s2)cc(N2CCN(CCO)CC2)n1 [Dasatinib]
inactive: [1]; 2.5 µM 0 | [2]; 2.5 µM 0 | [3]; 2.5 µM 0 | [4]; 2.5 µM 0 | [5]; 2.5 µM 0 | [6]; 2.5 µM 0 | [7]; 2.5 µM 0 | [8]; 2.5 µM 0 | [9]; 2.5 µM 0 | [10]; 2.5 µM 0

CC[C@@H]1C(=O)N(C)c2cnc(Nc3ccc(C(=O)NC4CCN(C)CC4)cc3OC)nc2N1C1CCCC1
inactive: [1]; 10 µM 0 | [2]; 10 µM 0 | [3]; 10 µM 0 | [4]; 10 µM 0 | [5]; 10 µM 0 | [6]; 10 µM 0 | [7]; 10 µM 0 | [8]; 10 µM 0 | [9]; 10 µM 0 | [10]; 10 µM 0

Retrieved one by one from the entries so far, 2 records:
Cc1nc(Nc2ncc(C(=O)Nc3c(C)cccc3Cl)s2)cc(N2CCN(CCO)CC2)n1 [Dasatinib]
inactive: [1]; 2.5 µM 0 | [2]; 2.5 µM 0 | [3]; 2.5 µM 0 | [4]; 2.5 µM 0 | [5]; 2.5 µM 0 | [6]; 2.5 µM 0 | [7]; 2.5 µM 0 | [8]; 2.5 µM 0 | [9]; 2.5 µM 0 | [10]; 2.5 µM 0

C[C@@H]1CN(C(=O)Nc2ccc(-c3nc(N4CCOCC4)c4cnn(CCCCCCC(=O)NO)c4n3)cc2)CCO1 [HDACs/mTOR Inhibitor 1]
inactive: [1]; 10 µM 0 | [2]; 10 µM 0 | [3]; 10 µM 0 | [4]; 10 µM 0 | [5]; 10 µM 0 | [6]; 10 µM 0 | [7]; 10 µM 0 | [8]; 10 µM 0 | [9]; 10 µM 0 | [10]; 10 µM 0

Remaining list, next part.

COc1ccc(-c2cc(C(=O)NN=C(C)c3ccc(OC)c(OC)c3)[nH]n2)cc1
inactive: [1]; 10 µM 0 | [2]; 10 µM 0 | [3]; 10 µM 0 | [4]; 10 µM 0 | [5]; 10 µM 0 | [6]; 10 µM 0 | [7]; 10 µM 0 | [8]; 10 µM 0 | [9]; 10 µM 0 | [10]; 10 µM 0

CCn1c(=O)c(-c2cc(NC(=O)Nc3ccccc3)c(F)cc2Br)cc2cnc(NC)cc21 [Ripretinib]
active: [4]; 10 µM 1
inactive: [1]; 10 µM 0 | [2]; 10 µM 0 | [3]; 10 µM 0 | [5]; 10 µM 0 | [6]; 10 µM 0 | [7]; 10 µM 0 | [8]; 10 µM 0 | [9]; 10 µM 0 | [10]; 10 µM 0

Nc1ncnc2n[nH]c(-c3ccc(Oc4ccccc4)cc3)c12 [Ibrutinib deacryloylpiperidine]
inactive: [1]; 10 µM 0 | [2]; 10 µM 0 | [3]; 10 µM 0 | [4]; 10 µM 0 | [5]; 10 µM 0 | [6]; 10 µM 0 | [7]; 10 µM 0 | [8]; 10 µM 0 | [9]; 10 µM 0 | [10]; 10 µM 0

Nc1nc(Nc2ccc(S(N)(=O)=O)cc2)nn1C(=O)c1c(F)cccc1F
inactive: [1]; 2.5 µM 0 | [2]; 2.5 µM 0 | [3]; 2.5 µM 0 | [4]; 2.5 µM 0 | [5]; 2.5 µM 0 | [6]; 2.5 µM 0 | [7]; 2.5 µM 0 | [8]; 2.5 µM 0 | [9]; 2.5 µM 0 | [10]; 2.5 µM 0

COc1ccc(CNC(=O)Nc2ncc([N+](=O)[O-])s2)cc1
inactive: [1]; 2.5 µM 0 | [2]; 2.5 µM 0 | [3]; 2.5 µM 0 | [4]; 2.5 µM 0 | [5]; 2.5 µM 0 | [6]; 2.5 µM 0 | [7]; 2.5 µM 0 | [8]; 2.5 µM 0 | [9]; 2.5 µM 0 | [10]; 2.5 µM 0
